In patent publication US20250188189A1:
These are yes or no findings as the source states them, for the method shown. Some entries that bind do so weakly or less than the wild type.

By UniProt entry, the sequences of proteins in these tests, tags left out. Where a name states a change or a piece, a line headed by the entry shows the natural chain unless it says otherwise.
UniProt P04070: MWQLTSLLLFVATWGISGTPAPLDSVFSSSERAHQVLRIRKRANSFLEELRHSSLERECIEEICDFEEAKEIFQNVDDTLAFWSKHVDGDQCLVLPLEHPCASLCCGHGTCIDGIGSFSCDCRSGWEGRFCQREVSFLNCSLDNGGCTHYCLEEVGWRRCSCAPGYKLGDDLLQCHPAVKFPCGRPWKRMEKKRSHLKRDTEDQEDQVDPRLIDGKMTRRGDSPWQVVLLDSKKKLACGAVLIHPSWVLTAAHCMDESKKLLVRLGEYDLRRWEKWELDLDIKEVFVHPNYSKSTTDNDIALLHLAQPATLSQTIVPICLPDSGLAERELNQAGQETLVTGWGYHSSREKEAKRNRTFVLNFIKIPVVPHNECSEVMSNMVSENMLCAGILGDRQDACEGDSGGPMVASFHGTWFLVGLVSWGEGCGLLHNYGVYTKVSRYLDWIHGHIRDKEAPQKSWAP

Biological target: plasma-derived human activated protein C (APC) (human) (UniProt P04070)
Assay: affinity comparison with the parent; SPR screen as in Example 2 (FIG. 12)

binding: binds
B1: TPP-29853 (antibody, human IgG4 S228P, kappa, V domains shown)
VH: EVQLVESGGGLVQPGGSLRLSCAASGFTFSNYYMNWVRQAPGKGLEWVSYISSSSSTIYYADSVKGRFTISRDDSKNSLYLQMNSLKTEDTAVYYCAREGDYMDYWGQGTLVTVSS
VL: EIVLTQSPGTLSLSPGERATLSCRASQSVSSFGATFMHWYQQKPGQPPKLLIYLASNRASGVPDRFSGSGSGTDFTLKISRVEAEDVGVYYCQQNNEDPYTFGQGTKLEIKR
